{"source": "patent US9943496B2", "about": "“Dietary supplement based on ethyl ferulate” (LABORATORIOS MINKAB, S. A. DE C. V., priority 2015, dated 2018)", "key": {"[1]": {"assay": "Shelf life study of meat, CIE color parameters during refrigerated storage at 4° C.", "design": "species or system Bos taurus", "details": "5 or 10 ppm/day FE; day 14 of storage at 4° C.; control lost about 9 units"}, "heifers": {"tested_on": "heifers", "assay": "Sacrifice and evaluation of carcass quality of supplemented heifers", "format": "in vivo, Bos taurus", "details": "Longissimus dorsi", "description": "Once the productive performance test was finished, the animals were sacrificed following the current regulations.\nThe pH was measured at 45 min and 24 h postmortem in the Longissimus dorsi (LD) at the 12th intercostal space using a portable digital potentiometer brand HANNA HI 99163 (Mettler-Toledo Process Analytical Inc., Wilmington, Mass., USA). The weight of the hot carcass was recorded, then the carcasses were cooled to 0° C. for 24 h.\nAt 24 h postmortem the weight of the cold carcass was measured. In at least 36 carcasses per treatment, area in cm^2 rib eye, the thickness of back fat in mm, was evaluated. The degree of marbling was also evaluated following USDA guidelines (2000): Trace (300-399), Light (400-499), Little (500-599), Modest (600-699), Moderate (700-799), Slightly abundant (800-899). These determinations were made in the LD muscle to level 12th intercostal space. Finally, the quality level of the channel according to USDA (2000) was estimated, based on the degree of marbling and carcass physiological maturity: Select − (400-449), Select + (450-499) Choice − (500-599), Choice medium (600-699), Choice + (700-799), Prime (800 or greater).\nProductive performance data were analyzed by ANOVA with a design of a randomized complete block using the method of generalized linear models (GLM) using initial weight as a covariate; data carcass quality were analyzed under a completely randomized design blocks. The variance analysis (mixed models procedure), included as a fixed effect to experimental treatments and as a random effect the initial weight of animals for productive performance data and final weight for carcass quality. The study data shelf life was analyzed using analysis of variance of two ways, considering the fixed effects of treatment and storage time. When differences between treatments were detected in productive performance variables and carcass quality, comparisons of means were performed by orthogonal contrasts. The following contrasts were tested: Contrast 1: Control vs FE5+FE10; Contrast 2: FE5 vs FE10. For data quality meat in the study of oxidative stability, the comparison of means was by the Tukey test. All data were processed in the statistical package NCSS (NCSS Version 8.0, 2012)."}}, "data": [{"smiles": "CCOC(=O)/C=C/c1ccc(O)c(OC)c1", "note": "[ethyl ferulate]", "values": [{"measurement": "Change of red color (Δa*) compared to baseline", "setting": "[1]", "value": "about 5.5 units"}, {"measurement": "pH 45 min postmortem", "setting": "heifers; FE5: 5 ppm/day", "value": "6.71 ± 0.1"}, {"measurement": "pH 24 h postmortem", "setting": "heifers; FE5: 5 ppm/day", "value": "5.56 ± 0.2"}, {"measurement": "pH 45 min postmortem", "setting": "heifers; FE10: 10 ppm/day", "value": "6.72 ± 0.1"}, {"measurement": "pH 24 h postmortem", "setting": "heifers; FE10: 10 ppm/day", "value": "5.52 ± 0.2"}]}]}
